Experimental findings from patent US20060193821 are described below.

Chains of the proteins cited; added tags and fusions are not shown. Chains listed by the source or under a name are the forms on record and can include a tag or linker.
IL-23 (mouse, p19/p40 heterodimer) (Mus musculus), one chain, as listed by the source, chain 2 of 2: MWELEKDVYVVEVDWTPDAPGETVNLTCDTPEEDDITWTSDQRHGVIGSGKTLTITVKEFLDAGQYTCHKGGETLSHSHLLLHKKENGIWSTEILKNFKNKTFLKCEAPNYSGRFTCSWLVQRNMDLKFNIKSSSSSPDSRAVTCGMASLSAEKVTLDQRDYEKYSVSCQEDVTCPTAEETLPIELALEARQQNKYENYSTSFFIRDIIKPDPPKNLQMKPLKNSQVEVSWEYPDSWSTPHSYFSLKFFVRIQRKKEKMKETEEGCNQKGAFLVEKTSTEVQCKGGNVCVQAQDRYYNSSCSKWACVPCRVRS
IL-23 (human, p19/p40 heterodimer) (Homo sapiens), one chain, as listed by the source, chain 1 of 2: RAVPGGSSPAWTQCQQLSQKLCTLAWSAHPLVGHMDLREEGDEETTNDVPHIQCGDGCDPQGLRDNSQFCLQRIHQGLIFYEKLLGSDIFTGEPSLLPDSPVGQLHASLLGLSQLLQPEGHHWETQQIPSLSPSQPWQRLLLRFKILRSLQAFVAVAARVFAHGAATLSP
IL-23 (human, p19/p40 heterodimer) (Homo sapiens), one chain, as listed by the source, chain 2 of 2: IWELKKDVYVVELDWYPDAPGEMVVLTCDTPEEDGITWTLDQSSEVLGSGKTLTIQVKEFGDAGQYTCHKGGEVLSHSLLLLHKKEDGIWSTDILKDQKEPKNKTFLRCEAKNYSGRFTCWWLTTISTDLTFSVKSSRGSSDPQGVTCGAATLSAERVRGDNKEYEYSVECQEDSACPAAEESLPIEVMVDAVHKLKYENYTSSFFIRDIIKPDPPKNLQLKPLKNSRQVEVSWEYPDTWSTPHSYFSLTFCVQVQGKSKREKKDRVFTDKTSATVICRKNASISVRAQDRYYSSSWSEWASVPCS
IL-23 (mouse, p19/p40 heterodimer) (Mus musculus), one chain, as listed by the source, chain 1 of 2: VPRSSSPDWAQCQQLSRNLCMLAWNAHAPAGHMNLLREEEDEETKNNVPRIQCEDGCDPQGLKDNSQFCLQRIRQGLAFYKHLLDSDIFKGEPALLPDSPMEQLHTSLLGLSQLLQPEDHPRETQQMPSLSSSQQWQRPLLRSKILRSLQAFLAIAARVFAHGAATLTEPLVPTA

For some of these results: Weaker means in comparison with the reference protein, sequence or condition of that experiment. For some of these results: The exact form of at least one protein or probe is not confirmed. For some of these results: Whether high values mean tight binding is not given here for every scale.

One may read the IC50 as the concentration that inhibits the measured activity by half.

One data set concerns IL-23 (human, p19/p40 heterodimer) (Homo sapiens). Briefly: filter binding. Conditions: 2'-F C,U; 100 nM IL-23; purified recombinant protein; protein details: R&D Systems, carrier free.
As for “GGAGUUACUCAGCGUCCGUAAGGGAUAUGCUCCGACUCC [A10.min3]”, the binding signal was 1.6 +/- ratio.
Still for that read-out and setting: the same measure for “GGAUCAUACACAAGAAGUGCUUCAUGCGGCAAACUGCAUGACGUCGAAUAGAUCC [B10.min2]”: 1.6 +/- ratio.

Still in this data set, the particulars now being: 2'-F C,U; 100 nM IL-23; purified recombinant protein; protein details: R&D Systems, carrier free; variant of AMX84-C10.
Consider “GGCGGUCCGCAUUGAUGUCAGUUAUGCGUAGCUCCGCC [C10.2]”, for which the binding signal is 1.5 +/- ratio.

Still in this data set, the particulars now being: deoxy A,G; 2'-OMe C,U; <parent clone; purified recombinant protein; protein details: R&D Systems, carrier free.
With GGCGGUACGGGGGGAGUGGGCUGGGUC [ARC1128], the binding result is “binds more weakly”.
Turning to GGUACGGGGAGAGUGGGCUGGG [ARC1132], the binding result was “binds more weakly”.
For the sequence “ACAGGCAAGUAAUUGGGGAGUGCGGGCGGUGU [ARC1118]”, the binding result is given as “binds more weakly”.
Take GGCGGUACGGGGAGUGUGGGCUGGGCC [ARC1124]: the binding result is “binds more weakly”.
GGCAAGUAAUUGGGGAGUGCGGGCGG [ARC1117]: the binding result is on record as “binds more weakly”.
On the same count and under the same terms, as for GGCGGUACGGGGAGAGUGGGCUGGGGUC [ARC1129], the entry is “binds more weakly”; as for GGUACGGGGAGUGUGGGCUGGG [ARC1122], “binds more weakly”.
Same read-out and setting: the same measure for GGUACGGGGAGUGUGGGUUGG [ARC1125]: “binds more weakly”; for GGCGGUACGGGGAGUGUGGGCUGGGGCC [ARC1120]: “binds more weakly”.
For the sequence GGUACGGGGAGUGUGGGUUGGG [ARC1121], the binding result is on record as “binds more weakly”.
As for GGCGGUACGGGGGGAGUGGGCUGGGGUC [ARC1127], the binding result was “binds more weakly”.
Turning to GGUACGGGGAGUGUGGGCUGG [ARC1126], the binding result is recorded as “binds more weakly”.
Same read-out and setting: the same measure for GGUACGGGGGGAGUGGGCUGG [ARC1131]: “binds more weakly”.
Same read-out and setting: the same measure for GGCGGUACGGGGAGUGUGGGUUGGGGCC [ARC1119]: “binds more weakly”; for GGCGGUACGGGGAGUGUGGGUUGGGCC [ARC1123]: “binds more weakly”.
Same read-out and setting: the same measure for GGUACGGGGGGAGUGGGCUGGG [ARC1130]: “binds more weakly”.

The same data set, now with this note: deoxy A,G; 2'-OMe C,U; dI at G4; 3'-idT [dI at 4 (parent G); 2'-OMe C,U at 2,6,10,13,14,21,23,27,32,34; deoxy A,G elsewhere; 3'-inverted dT at 35]; 100 nM …; no Kd given; purified recombinant protein; protein details: R&D Systems, carrier free; letters built from the parent sequence and the stated change; variant of ARC979.
With “ACAGGCAAGUAAUUGGGGAGUGCGGGCGGGGUGU [ARC1591]”, the binding signal worked out at 54.8 % bound.

A further data set relates to IL-23 (mouse, p19/p40 heterodimer) (Mus musculus). The data set is described as follows: activity in cells. Conditions: 2'-F C,U; TransAM STAT3, multiple experiment average; purified recombinant protein; protein details: isolated in-house.
On to “GGAGCGCACUCAGCCACUCUACUCGAUAUAGUUUAUCGAGCCGGUGGUAGAUUAUGAUUUCGACCUCUCUGCUAGC [ARC1630]”, for which the 50% inhibitory concentration (IC50) is 16.6 nM.

The next data set concerns IL-23 (human, p19/p40 heterodimer) (Homo sapiens). Briefly: activity in cells. To be noted: 2'-OMe C,U and many purines; multiple PS; 3'-idT [2'-OMe C2,C6,U10,U13,U14,U21,C23,C27,U32,U34 and many purines (positions not stated); PS 2-3,6-7,11-12,14-15,17-18,18-19,19-20,21-22 (N = PS linkage, left out); 3'-inverted dT 35]; Pathscan pSTAT3; purified recombinant protein; protein details: R&D Systems, carrier free; letters built from the parent sequence and the stated change; variant of ARC979.
As to “ACAGGCAAGUAAUUGGGGAGUGCGGGCGGGGUGU [ARC1756]”, the IC50 was found to be 19 nM.
